Assay results reported in patent publication US20040253629A1 (Stanford University, published 2004).

Key:
Bcl-xL = assay: yeast two-hybrid; (-) = absence of reporter gene expression
BAD = assay: yeast two-hybrid, Bok-GAL4-AD vs GAL4-BD fusion, growth on selective medium with 5 mM 3-aminotriazole

B1: Bok-L (Bcl-2-related ovarian killer, long form, rat) (other)
chain: MEVLRRSSVFAAEIMDAFDRSPTDKELVAQAKALGREYVHARLLRAGLSWSAPERASPAPGGRLAEVCTVLLRLGDELEQIRPSVYRNVARQLHIPLQSEPVVTDAFLAVAGHIFSAGITWGKVVSLYSVAAGLAVDCVRQAQPAMVHALVDCLGEFVRKTLATWLRRRGGWTDVLKCVVSTDPGFRSHWLVATLCSFGRFLKAAFFLLLPER
notes: also called full-length Bok protein
- binding (Bcl-xL): no binding
- binding (BAD): no binding

Results are given in words; binding and its absence hold for the method and conditions named.
